Source: article PMC7900654

Legend:
[1] = target: T1, TIA1 (human (K562 cells)) (UniProt P31483); assay: pull-down; conditions: K562 lysate in 50 mM Tris-HCl pH 7.5, 150 mM NaCl, 1 mM EDTA, 1% Triton X-100, 0.5 mM DTT, 0.1% sodium deoxycholate, 4 °C, protein in an extract
T1 sequence (looked up, limits assumed): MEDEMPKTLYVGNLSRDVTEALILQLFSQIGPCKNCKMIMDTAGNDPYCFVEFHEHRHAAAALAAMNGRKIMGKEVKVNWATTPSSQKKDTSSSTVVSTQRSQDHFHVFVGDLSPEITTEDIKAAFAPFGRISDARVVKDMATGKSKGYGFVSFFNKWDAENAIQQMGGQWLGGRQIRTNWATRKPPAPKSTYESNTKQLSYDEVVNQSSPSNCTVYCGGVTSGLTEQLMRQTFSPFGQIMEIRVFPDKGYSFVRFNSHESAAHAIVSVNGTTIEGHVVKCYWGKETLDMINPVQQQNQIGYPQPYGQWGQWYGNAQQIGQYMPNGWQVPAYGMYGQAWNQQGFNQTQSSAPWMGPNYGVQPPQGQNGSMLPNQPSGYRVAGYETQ

[2] = target: T2, SND1 (human (K562 cells)) (UniProt Q7KZF4); assay: pull-down; conditions: K562 lysate in 50 mM Tris-HCl pH 7.5, 150 mM NaCl, 1 mM EDTA, 1% Triton X-100, 0.5 mM DTT, 0.1% sodium deoxycholate, 4 °C, protein in an extract
T2 sequence (looked up, limits assumed): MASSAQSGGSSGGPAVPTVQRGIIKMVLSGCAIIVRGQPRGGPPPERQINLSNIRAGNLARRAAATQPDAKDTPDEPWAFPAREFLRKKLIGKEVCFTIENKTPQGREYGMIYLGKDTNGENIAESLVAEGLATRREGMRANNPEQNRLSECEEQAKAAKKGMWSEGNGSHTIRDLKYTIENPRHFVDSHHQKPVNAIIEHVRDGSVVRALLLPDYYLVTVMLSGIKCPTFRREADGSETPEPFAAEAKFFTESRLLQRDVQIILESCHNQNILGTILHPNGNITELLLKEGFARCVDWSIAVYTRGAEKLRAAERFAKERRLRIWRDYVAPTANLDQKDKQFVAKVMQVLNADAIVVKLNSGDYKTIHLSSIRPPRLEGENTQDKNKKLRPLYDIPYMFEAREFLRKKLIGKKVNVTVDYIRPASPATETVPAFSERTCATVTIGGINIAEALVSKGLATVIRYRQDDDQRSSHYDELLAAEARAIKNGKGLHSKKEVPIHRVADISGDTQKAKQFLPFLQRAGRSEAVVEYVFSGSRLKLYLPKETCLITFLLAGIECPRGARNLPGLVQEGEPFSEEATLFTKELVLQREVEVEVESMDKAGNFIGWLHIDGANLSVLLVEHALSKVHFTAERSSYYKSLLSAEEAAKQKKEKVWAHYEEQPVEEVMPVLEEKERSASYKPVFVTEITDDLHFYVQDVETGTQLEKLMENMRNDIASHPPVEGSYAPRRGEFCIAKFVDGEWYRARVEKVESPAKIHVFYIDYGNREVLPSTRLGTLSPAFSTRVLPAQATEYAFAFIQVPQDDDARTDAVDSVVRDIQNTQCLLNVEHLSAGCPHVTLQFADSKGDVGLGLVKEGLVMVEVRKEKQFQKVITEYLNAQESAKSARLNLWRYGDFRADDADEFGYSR

“UAGGAAUGUGAAGCCAGAGGUUUCGGAUUCGUGACAU [TIA1_target1 (SLC35D2), snap-cooled, single-stranded]”: binds ([1]; fast-cooled (snap-cooled)).
“GCCUCCGCCUCUCUCUUUACUGCGGCGCGGGGCAAGGUGUGCGGGCGG [TIA1_target2_WT (CANX), single-stranded]”: binds ([1]; single-stranded conformation).
“GCCUCCGCCUCUCUCUUUACUGCGGCGCGGGGCAAGGAAAGAGAGCGG [target2_mut2 (CANX distal mutant), folded]”: binds more weakly ([1]; refolded, binding stated as diminished).
“GCCUCCGCCUCACACAAAACUGCGGCGCGGGGCAAGGUGUGCGGGCGG [target2_mut1 (CANX HAR mutant), single-stranded]”: no binding ([1]; snap-cooled, binding stated as disrupted).
“UAACUUGGACUAGUGUAACUCCUUGAGCCAUGCUGUCUAGUCUU [SND1_target (EIF1), snap-cooled, single-stranded]”: binds more weakly ([2]; fast-cooled (snap-cooled)).
“UAGGAAUGUGAAGCCAGAGGUUUCGGAUUCGUGACAU [TIA1_target1 (SLC35D2), folded]”: binds more weakly ([1]; slow-cooled (refolded)).
“GCCUCCGCCUCUCUCUUUACUGCGGCGCGGGGCAAGGAAAGAGAGCGG [target2_mut2 (CANX distal mutant), single-stranded]”: binds ([1]; snap-cooled, diminished only under pairing conditions).
“UAACUUGGACUAGUGUAACUCCUUGAGCCAUGCUGUCUAGUCUU [SND1_target (EIF1), slow-cooled, folded]”: binds ([2]; slow-cooled (refolded)).

For at least one entry, the source does not settle the construct or the ends of the probe. Where cells or extracts were used, other partners may take part. For some assays here: A negative result means that nothing was seen under these conditions. Where a protein sequence is shown, tags need not be part of it. The comparison behind a weaker result is the experiment's own reference, which may not be listed here. For some assays here: At least one verdict was read from the data and is not stated in words by the source.
